PubChem BioAssay AID1259425 | University of Nebraska Medical Center | 2018
Shown is one part, drawn at random, of about 14,000 reagents tested. Not stated in the record: the time to read-out.

Assay: 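Compare each knockdown with KSR1 silencing using changes in marker transcripts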 (primary screen)
System: HCT116 human colon cancer cells
Reagent: siRNA pool against human genes, 50 nM siRNA
Detection: 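After 50 nM siRNA pool, branched-DNA assay measures six marker transcripts per well, minus blank, normalised to the geometric mean of two housekeeping transcripts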
Reading the numbers: BNIP3L mRNA: higher = more BNIP3L transcript after knockdown; NDRG1 mRNA: higher = more NDRG1 transcript after knockdown; BNIP3 mRNA: higher = more BNIP3 transcript after knockdown; ALDOC mRNA: higher = more ALDOC transcript after knockdown; ACSL5 mRNA: higher = more ACSL5 transcript after knockdown

no.	gene	BNIP3L mRNA, set 1	NDRG1 mRNA, set 1	BNIP3 mRNA, set 1	ALDOC mRNA, set 1	ACSL5 mRNA, set 1
1	TNF	0.176	0.38	0.214	0.0375	0.146
2	TPSD1	0.142	0.302	0.277	0.0204	0.14
3	TAF15	0.113	0.107	0.291	0.0188	0.118
4	ZMAT1	0.0554	0.247	0.258	0.0308	0.28
5	LRP10	0.111	0.201	0.279	0.0161	0.187
6	SMC3	0.0909	0.16	0.444	0.0599	0.136
7	DUSP11	0.0752	0.119	0.248	0.0164	0.184
8	CDIP1	0.169	0.153	0.584	0.0327	0.175
9	GNB1L	0.0977	0.136	0.238	0.0161	0.127
10	CAMK2G	0.101	0.196	0.378	0.0188	0.152
11	TTLL12	0.0648	0.282	0.303	0.00934	0.162
12	FARSA	0.156	0.866	0.381	0.0145	0.223
13	SIRT2	0.103	0.346	0.356	0.0242	0.136
14	AKIRIN2	0.121	0.0724	0.294	0.024	0.109
15	HYCC1	0.155	0.0725	0.289	0.0243	0.129
16	TTLL5	0.0743	0.187	0.321	0.0136	0.208
17	GHDC	0.153	0.333	0.224	0.0322	0.13
18	SIN3B	0.065	0.708	0.282	0.00781	0.222
19	BAIAP2L2	0.32	0.655	0.57	0.0695	0.287
20	MTNR1A	0.207	0.135	0.246	0.0365	0.152

Laid out differently: results already given
{"gene":"SIRT2","BNIP3L mRNA, set 1":0.103,"NDRG1 mRNA, set 1":0.346,"BNIP3 mRNA, set 1":0.356,"ALDOC mRNA, set 1":0.0242,"ACSL5 mRNA, set 1":0.136}
{"gene":"AKIRIN2","BNIP3L mRNA, set 1":0.121,"NDRG1 mRNA, set 1":0.0724,"BNIP3 mRNA, set 1":0.294,"ALDOC mRNA, set 1":0.024,"ACSL5 mRNA, set 1":0.109}
